These are yes or no findings as the source states them, for the method shown. In cells and extracts the contact can be indirect. Some binding calls cover weakened binding; strength is not graded here. Sequences can lack the tags named with a protein.
How the values were obtained:
Assay in all cases: co-IP; anti-FLAG IP of FLAG-STUB1 variants from lysates of sgSTUB1-expressing HEK293T cells co-transfected with Myc-JAK1 and V5-IFNγ-R1; NP-40 buffer (1% NP40, 150 mM NaCl, 10 mM TrisHCl, pH 7.4); 10 μg IP antibody 2 h at 4 °C, Protein A beads 2 h at 4 °C; immunoblot
[1] = target: FLAG-tagged full-length STUB1 (STIP1 homology and U-box containing protein 1) (UniProt Q9UNE7)
FLAG-tagged STUB1 K30A = FLAG-tagged STUB1 K30A (UniProt Q9UNE7)
FLAG-tagged STUB1 H260Q = FLAG-tagged STUB1 H260Q (UniProt Q9UNE7)

By UniProt entry, the sequences of proteins in these tests, tags left out. Where a name states a change or a piece, a line headed by the entry shows the natural chain unless it says otherwise.
UniProt Q9UNE7: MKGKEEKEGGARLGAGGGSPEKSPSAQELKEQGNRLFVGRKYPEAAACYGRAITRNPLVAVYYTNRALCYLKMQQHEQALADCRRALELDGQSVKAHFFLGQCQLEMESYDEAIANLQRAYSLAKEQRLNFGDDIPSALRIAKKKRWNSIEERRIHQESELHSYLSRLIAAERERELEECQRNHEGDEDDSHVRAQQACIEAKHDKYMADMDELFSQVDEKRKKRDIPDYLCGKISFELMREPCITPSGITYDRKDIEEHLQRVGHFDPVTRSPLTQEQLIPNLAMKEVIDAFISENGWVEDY

Measured: binding

B1: V5-tagged IFNγ-R1 (receptor, UniProt P15260 18-489)
chain: EMGTADLGPSSVPTPTNVTIESYNMNPIVYWEYQIMPQVPVFTVEVKNYGVKNSEWIDACINISHHYCNISDHVGDPSNSLWVRVKARVGQKESAYAKSEEFAVCRDGKIGPPKLDIRKEEKQIMIDIFHPSVFVNGDEQEVDYDPETTCYIRVYNVYVRMNGSEIQYKILTQKEDDCDEIQCQLAIPVSSLNSQYCVSAEGVLHVWGVTTEKSKEVCITIFNSSIKGSLWIPVVAALLLFLVLSLVFICFYIKKINPLKEKSIILPKSLISVVRSATLETKPESKYVSLITSYQPFSLEKEVVCEEPLSPATVPGMHTEDNPGKVEHTEELSSITEVVTTEENIPDVVPGSHLTPIERESSSPLSSNQSEPGSIALNSYHSRNCSESDHSRNGFDTDSSCLESHSSLSDSEFPPNNKGEIKTEGQELITVIKAPTSFGYDKPHVLVDLLVDDSGKESLIGYRPTEDSKEFS
binds: all assays above

— PMC8993893
